# Laboratory results: PubChem BioAssay AID1259308 (NCATS, 2017)
# Purpose: 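Candidate targets for better recombinant protein yield in mammalian cells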 (primary screen)
# System: human HEK293 embryonic kidney cells stably expressing firefly luciferase (HEK-CMV-Luc2-Hygro)
# Knock-down reagent: single siRNA against human genes, 0.8 pmol siRNA per well
# Duration: 72 h
# Detection: 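Luciferase light (ONE-Glo) measured on one replicate plate set and viability (CellTiter-Glo) on the other, scaled to a negative control siRNA, with robust z-scores and luciferase per cell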
# Scale: total luciferase, z-score and total luciferase, % of control: higher = more reporter protein produced; luciferase per cell, z-score: higher = more reporter output per viable cell; viable cells, % of control: higher = more viable cells
# Rule for the call: 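Active when the median/MAD z-score for overall luciferase is greater than 3; a gene was taken forward for validation with new siRNAs if at least two of its three siRNAs passed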
# Meaning of the calls: active = raised luciferase; inactive = no rise
# The deposit covers about 59,000 reagents; this is a part drawn at random. About 1,510 of them (2.6%) count as active. 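Calls use total luciferase alone and ignore viability, so some active siRNAs may act by altering cell number.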 The numbers tell different reagents against one gene apart. Reagent sequences are not shown.
target,reagent no.,"total luciferase, z-score","total luciferase, % of control","luciferase per cell, z-score","viable cells, % of control",Call
DLG3,1,-0.287,76.2,0.519,74.3,inactive
DLG3,2,-0.64,69.2,-0.788,95.1,inactive
DLG3,3,-0.236,77.2,-0.864,108,inactive
RBM14,1,1.78,117,1.37,91.3,inactive
RBM14,2,-0.0326,81.2,0.0383,89.9,inactive
RBM14,3,1.19,106,1.41,81.3,inactive
KRTAP13-3,1,-0.379,74.4,-0.398,92.3,inactive
KRTAP13-3,2,-1.72,47.7,-1.32,75.5,inactive
KRTAP13-3,3,-0.419,73.6,-0.691,98.6,inactive
CXCL14,1,-0.248,76.9,-0.126,88.9,inactive
CXCL14,2,-0.393,74.1,-0.537,95.3,inactive
CXCL14,3,1.66,115,0.975,99.3,inactive
SHTN1,1,0.205,86,0.192,91.3,inactive
SHTN1,2,-0.106,79.8,-0.613,105,inactive
SHTN1,3,0.359,89,-0.595,116,inactive
ZNF425,1,-0.347,75,-0.0953,85.9,inactive
ZNF425,2,1.51,112,1.33,88.2,inactive
ZNF425,3,1.58,113,1.5,85.3,inactive
LOC401052 (retired record),1,2.12,124,1.21,101,inactive
LOC401052 (retired record),2,-0.0464,81,-0.55,105,inactive
LOC401052 (retired record),3,1.43,110,0.385,111,inactive
GLIPR1L2,1,-0.832,65.3,-1.23,101,inactive
GLIPR1L2,2,-0.376,74.4,-0.129,86,inactive
GLIPR1L2,3,-0.033,81.2,-0.364,99.9,inactive

A stretch taken from the entries so far, for reference:
target,reagent no.,"total luciferase, z-score","total luciferase, % of control","luciferase per cell, z-score","viable cells, % of control",Call
KRTAP13-3,3,-0.419,73.6,-0.691,98.6,inactive
CXCL14,1,-0.248,76.9,-0.126,88.9,inactive
CXCL14,2,-0.393,74.1,-0.537,95.3,inactive
CXCL14,3,1.66,115,0.975,99.3,inactive
SHTN1,1,0.205,86,0.192,91.3,inactive
SHTN1,2,-0.106,79.8,-0.613,105,inactive

The listing continues.
target,reagent no.,"total luciferase, z-score","total luciferase, % of control","luciferase per cell, z-score","viable cells, % of control",Call
NOP2,1,-1.28,56.3,-0.819,78.1,inactive
NOP2,2,-0.814,65.7,-0.284,79.1,inactive
NOP2,3,-1.69,48.3,-1.22,74.5,inactive
PIP5KL1,1,1.1,104,1.49,78.2,inactive
PIP5KL1,2,3.19,145,2.38,86.9,active
PIP5KL1,3,0.732,96.4,0.77,88,inactive
SLC5A9,1,0.432,90.5,-0.0957,104,inactive
SLC5A9,2,-1.18,58.5,-1.07,86.5,inactive
SLC5A9,3,-0.464,72.7,-0.296,87.8,inactive
CALN1,1,0.885,99.5,0.679,93,inactive
CALN1,2,0.762,97.1,0.401,97.6,inactive
CALN1,3,2.27,127,2.12,81.3,inactive
MISO1,1,1.26,107,0.656,100,inactive
MISO1,2,-1.54,51.3,-1.01,74.9,inactive
MISO1,3,-0.729,67.4,-0.502,86,inactive
